Source: patent US9186318B2, “Quinolyl-containing hydroxamic acid compound and preparation method thereof, and pharmaceutical composition containing this compound and use thereof” (Beijing Konruns Pharmaceutical Co., Ltd, priority 2011, dated 2015)
At least one structure is not confirmed: it was looked up by name or label, or the drawing left a doubt.

Test system: GTL-16 gastric cancer cells
Test: Anti-tumor experiment in xenograft nude mice
Assay type: in vivo, BALB/c-nu/nu mice
Details: GTL-16 xenograft nude mice; 75 mg/kg oral once a day; 14 days
From the text: In this example, N1′-[3-fluoro-4-[[7-[[1-[2-(hydroxyamino)-2-oxoethyl]-4-piperidyl]methoxy]-6-methoxy-4-quinolyl]oxy]phenyl]-N1-(4-fluorophenyl)cyclopropane-1,1-dicarboxamide prepared in Example 1 was used to conduct anti-tumor experiment in xenograft nude mice animal models of human gastric cancer. The method and results of the experiment were as follows.
4 to 5-week-old SPF level female BALB/c-nu/nu mice with body weight of 12 g to 16 g were purchased from Beijing Vital River Laboratory Animal Technology Co., Ltd., with the production license number: SCXK (Beijing) 2006. GTL-16 gastric cancer cells were purchased from Shanghai Institutes for Biological Sciences Cell Resource Center. RPM 1-1640 cell culture media, fetal bovine serum (FBS) and trypsin digestion solution were purchased from Gibco. Various antibiotics were purchased from Sigma.
GTL-16 gastric cancer cells were firstly cultured: GTL-16 cell lines were inoculated in RPM 1-1640 culture medium contain 10% FBS, 100 U/ml penicillin, 100 U/ml streptomycin and cultured under the condition of 37° C., 5% CO2 and 100% humidity in a carbon dioxide incubator. The logarithmic growth phase reached upon 24 h, and the cells completely covered the bottom of the culture flask at approximately 48 h after inoculation. […] The tumor size of each animal was measured every 2 days. […]

COc1cc2c(Oc3ccc(NC(=O)C4(C(=O)Nc5ccc(F)cc5)CC4)cc3F)ccnc2cc1OCC1CCN(CC(=O)NO)CC1 [Example 1, N1′-[3-fluoro-4-[[7-[[1-[2-(hydroxyamino)-2-oxoethyl]-4-piperidyl]methoxy]-6-methoxy-4-quinolyl]oxy]phenyl]-N1-(4-fluorophenyl)cyclopropane-1,1-dicarboxamide]
tumor growth inhibition as compared to the vehicle control group (in words): significant tumor growth inhibition
